In patent US10155776B2, “Method for selective detection and estimation of histidine and cystein” (Council of Scientific and Industrial Research, priority 2014, dated 2018):

Test: Estimation of Cysteine and Histidine in human blood plasma with reagent R and NEM

SMILES	actual [Histidine] in HBP sample (CHis) (human blood plasma pre-treated with NEM, spiked with 200 and 300 μM His)	CHis in HBP sample (human blood plasma, mean of [His]1 and [His]2, three independent evaluations)	actual [Cys] in HBP sample (human blood plasma, difference CT−CHis)
N[C@@H](Cc1c[nH]cn1)C(=O)O [Histidine]	23±2.1 LM	23 ± 2.1 µM	
N[C@@H](CS)C(=O)O [cysteine]			239 ± 7.5 µM
